Reference: patent publication EP0804445B1, “METALLOCENIC DIARYLETHYLENE DERIVATIVES, METHODS FOR THEIR PREPARATION AND PHARMACEUTICAL COMPOSITIONS CONTAINING SAME” (Modelisation et Mise au Point de Molecules Medicanales - …, priority 1994, dated 1996)

Experiments:
lignée MCF-7 ATCC HTB = assay: MTT cytotoxicity test (cell viability); type: cell-based, humaines; conditions: Homo sapiens, 120 h; MCF7 ATCC cells; 5 days incubation with compound; MTT readout at 550 nm; calculated from points of Figures 1A, 1B and 2 between 5.10^-7 and 10^-5 moles/l; read-out: IC50 (µmole) MCF7 ATCC
Text: (§1) L'évaluation de la cytotoxicité des isomères "trans" et "cis" du 1-[4-(2-diméthylaminoéthoxy) phényl]-1-(4-hydroxyphényl)-2-ferrocényl-1-butène a fait l'objet de tests sur des lignées de cellules humaines dérivées d'une effusion pleurale d'un adénocarcinome mammaire (lignée MCF-7 ATCC HTB) ainsi que de l'un de ses variants (lignée MCF-7P).
(§2) Ces cellules ont été préalablement cultivées dans du milieu Dulbecco MEM additionné de 10% de sérum de veau foetal et en atmosphère humide (90% d'humidité relative) comprenant 5% de CO2. En phase exponentielle de croissance, ces cellules ont été trypsinées et repiquées dans des plaques de 24 puits de 1 ml à raison de 2.10^5 cellules par puits.
(§3) Après 3 jours d'incubation, les composés à tester ont été ajoutés aux doses appropriées et les plaques ont été mises à incuber pendant 5 jours.
(§4) A l'issue de cette incubation, la viabilité cellulaire des cultures a été déterminée à l'aide du test dit "MTT" consistant à ajouter dans chaque puits 20 µl d'une solution contenant 5 mg de bromure de (diméthyl-4,5-thiazol-2-yl)diphényl-2,5-tétrazolium (MTT) dans 1 ml de tampon PBS, et à laisser incuber les plaques pendant 1 heure à 37°C dans des conditions atmosphériques identiques à celles définies ci-dessus. Le MTT est métabolisé dans les cellules vivantes en un composé bleu insoluble (formazan). […]

lignée MCF-7P = assay: MTT cytotoxicity test (cell viability); type: cell-based, humaines; conditions: 120 h; MCF7-P variant cells; 5 days incubation with compound; MTT readout at 550 nm; calculated from points of Figures 1A, 1B and 2 between 5.10^-7 and 10^-5 moles/l; read-out: IC50 (µmole) MCF7-P
Text: as §1, §2, §3, §4

SMILES: CC/C(=C(\c1ccccc1)c1ccc(OCCN(C)C)cc1)c1ccccc1 [Tamoxifène, tamoxifène, reference compound]
- IC50 (lignée MCF-7 ATCC HTB): 6.4 µM
- IC50 (lignée MCF-7P): 7.2 µM
